Reference: paper PMC5007356
No constants are given. Whether binding was seen depends on the method and setting. In cells and extracts the contact can be indirect. Here binding means that the protein was enriched with, or labelled near, the bait; the list need not be complete.

By UniProt entry, the sequences of proteins in these tests, tags left out. Where a name states a change or a piece, a line headed by the entry shows the natural chain unless it says otherwise.
UniProt O18402: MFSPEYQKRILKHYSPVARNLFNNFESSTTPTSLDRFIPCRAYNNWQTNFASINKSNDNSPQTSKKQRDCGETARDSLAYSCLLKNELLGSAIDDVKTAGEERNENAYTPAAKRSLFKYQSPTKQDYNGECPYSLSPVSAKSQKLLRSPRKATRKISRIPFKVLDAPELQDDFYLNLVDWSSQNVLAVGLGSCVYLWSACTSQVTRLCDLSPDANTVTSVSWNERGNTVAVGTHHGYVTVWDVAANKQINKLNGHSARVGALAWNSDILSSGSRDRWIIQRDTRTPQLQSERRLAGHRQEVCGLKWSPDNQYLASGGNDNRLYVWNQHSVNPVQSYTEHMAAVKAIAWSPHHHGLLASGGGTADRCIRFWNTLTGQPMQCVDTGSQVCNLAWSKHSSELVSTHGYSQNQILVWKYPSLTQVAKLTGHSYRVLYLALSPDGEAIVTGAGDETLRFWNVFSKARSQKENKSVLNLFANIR
UniProt Q9VV79: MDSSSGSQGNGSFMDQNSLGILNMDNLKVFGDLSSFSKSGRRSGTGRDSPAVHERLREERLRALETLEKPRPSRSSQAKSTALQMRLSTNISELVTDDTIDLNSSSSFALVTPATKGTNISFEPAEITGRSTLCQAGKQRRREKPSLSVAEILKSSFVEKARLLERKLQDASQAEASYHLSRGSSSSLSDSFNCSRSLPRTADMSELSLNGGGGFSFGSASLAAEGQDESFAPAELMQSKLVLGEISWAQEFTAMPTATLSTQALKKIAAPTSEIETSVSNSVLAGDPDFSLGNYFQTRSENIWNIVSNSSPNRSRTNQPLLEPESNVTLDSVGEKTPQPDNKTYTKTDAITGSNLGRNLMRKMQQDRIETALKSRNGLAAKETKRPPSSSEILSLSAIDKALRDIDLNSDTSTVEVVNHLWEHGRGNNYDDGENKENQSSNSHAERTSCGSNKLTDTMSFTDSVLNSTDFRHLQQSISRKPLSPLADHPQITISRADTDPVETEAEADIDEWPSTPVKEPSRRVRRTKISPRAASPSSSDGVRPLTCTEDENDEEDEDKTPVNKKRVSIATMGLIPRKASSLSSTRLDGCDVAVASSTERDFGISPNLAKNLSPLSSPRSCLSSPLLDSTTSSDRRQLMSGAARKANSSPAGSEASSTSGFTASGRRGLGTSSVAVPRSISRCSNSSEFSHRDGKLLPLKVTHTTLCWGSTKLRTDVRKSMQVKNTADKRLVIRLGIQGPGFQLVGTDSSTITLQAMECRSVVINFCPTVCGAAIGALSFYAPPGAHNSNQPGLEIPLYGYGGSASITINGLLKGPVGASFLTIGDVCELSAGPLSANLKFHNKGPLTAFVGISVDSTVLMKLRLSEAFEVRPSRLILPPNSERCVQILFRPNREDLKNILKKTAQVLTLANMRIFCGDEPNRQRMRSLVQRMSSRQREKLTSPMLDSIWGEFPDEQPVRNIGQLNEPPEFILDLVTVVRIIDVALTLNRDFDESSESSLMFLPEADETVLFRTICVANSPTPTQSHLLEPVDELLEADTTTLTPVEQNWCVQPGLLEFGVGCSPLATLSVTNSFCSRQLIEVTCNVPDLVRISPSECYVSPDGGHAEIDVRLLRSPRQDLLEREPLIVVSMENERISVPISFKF
UniProt P23572: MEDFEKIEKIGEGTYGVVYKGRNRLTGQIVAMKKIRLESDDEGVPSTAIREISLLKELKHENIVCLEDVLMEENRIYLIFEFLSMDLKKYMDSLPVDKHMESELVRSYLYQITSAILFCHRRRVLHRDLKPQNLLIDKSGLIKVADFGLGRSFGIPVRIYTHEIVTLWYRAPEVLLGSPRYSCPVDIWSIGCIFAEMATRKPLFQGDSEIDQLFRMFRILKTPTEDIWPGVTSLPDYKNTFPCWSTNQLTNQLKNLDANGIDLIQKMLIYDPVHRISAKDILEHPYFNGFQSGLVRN

Molecular target: Protein A-tagged Fzr (Drosophila melanogaster) (UniProt O18402)
Assay: affinity purification with mass spectrometry; PrA-Fzr purified on rabbit IgG-conjugated Dynabeads from lysates of D. mel-2 cells or Drosophila embryos, 4 °C, 2 h; 50 mM K-HEPES pH 7.5, 100 mM AcOK, 100 mM NaCl, 50 mM KCl, 0.1% NP40; eluted with 1 M NH4OH; LC-MS/MS

How did the binding turn out when Spd2 (endogenous) (from UniProt Q9VV79) was run?
The binding was “binds”.

“Cdk1 (endogenous) (from UniProt P23572 1-297)” was tested. Which binding did it give?
The binding was “binds”.
